# Source: PubChem BioAssay AID504444 (National Center for Advancing Translational Sciences (NCATS), 2011)
# The whole screen tested about 360,000 compounds, of which about 7,500 (2.1%) were called active. The inconclusive results got no clear call from the source; some entries with a clear call stand among them for comparison. Calls follow the shape of the dose curve; as a rule, active = well fitted inhibition curve with a large enough effect; inconclusive = small, poorly fitted or top-dose-only effect, or effect the other way; inactive = flat fitted curve, though single readings scatter. Potencies of inconclusive entries are doubtful fits and often do not repeat.
# Assay: Nrf2 qHTS screen for inhibitors; also: nearly all actives have a fitted effect of over 60% in size
# Conditions: A549 ARE-Fluc reporter, luciferase luminescence, 18-24 h; series mostly up to 46 µM
# Method in brief: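 Concentration-response testing used A549 ARE_Fluc cells at 5000 cells/well. Following an 18-24 h compound incubation, viability was read by fluorescence (Ex 405/Em 525) and luciferase output by luminescence.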
# Potency is read from the fitted curve at half-maximal effect.
row,SMILES,Potency
1,CC1CC(C)CN(CC(=O)c2c[nH]c3ccccc23)C1 (stereo not given),"inconclusive: 18.4 µM [activator, partial curve, poor fit]"
2,CCCSc1nnc(-c2cccc(S(=O)(=O)N(C)C)c2)n1-c1cc(OC)ccc1OC,"inconclusive: 25.9 µM [falling, single point]"
3,COc1ccccc1NS(=O)(=O)c1cc(NC(=O)C(C)(C)C)ccc1N1CCOCC1,"inconclusive: 2.91 µM [falling, partial curve, poor fit]"
4,COc1cccc(CCNC(=O)c2cccc(NC(=O)C3=C(C)OCCS3)c2)c1,"inconclusive: 29.1 µM [falling, single point]"
5,Cc1ccc(S(=O)(=O)N(C)C)cc1NC(=S)NC(C)CCC(C)C (stereo not given),"inconclusive: 23.1 µM [falling, single point]"
6,C[C@@H]1CN([C@@H](C)CO)C(=O)Cc2cc(NC(=O)Nc3cccc4ccccc34)ccc2O[C@@H]1CN(C)Cc1ccc(C(F)(F)F)cc1,"inconclusive: 29.1 µM [falling, single point]"
7,COc1ccc(CCNC(=O)c2cc(S(=O)(=O)N3CCCCC3)ccc2Cl)cc1,"inconclusive: 29.1 µM [falling, single point]"
8,Cc1cc(CN(C)C(=O)c2cc(COc3ccc(F)cc3Cl)on2)n[nH]1,"inconclusive: 6.51 µM [activator, single point]"
9,COc1cccc(S(=O)(=O)NCc2ccc(C(=O)N3CCN(c4ccccc4)CC3)cc2)c1,"inconclusive: 18.4 µM [falling, partial curve, poor fit]"
10,Cc1cc(=O)n2c3c(c4c(cc13)c(CN(C)C)cc(=O)n4C)OC2,"inconclusive: 23.1 µM [falling, single point]"
11,CCCc1nc2c(=O)n(C)c(=O)nc-2n(C)n1,active: 23.1 µM
12,Cc1ccc(C(=O)CCS(=O)(=O)c2ccc(Cl)cc2)cc1,inactive
13,COc1cc2ccccc2cc1C(=O)NC1CCCCC1,"inconclusive: 18.4 µM [activator, partial curve]"
14,Cc1cccc(N=Nc2cn[nH]c2-c2ccco2)c1,inactive
15,O=C(c1ccco1)N1CCN(C(=O)c2ccc(COc3ccc4c(c3)CCC4)o2)CC1,"inconclusive: 29.1 µM [falling, single point]"
16,COc1cccc(CNC(=O)C2CCCCN2S(=O)(=O)c2ccc(F)cc2)c1 (stereo not given),"inconclusive: 10.3 µM [activator, partial curve]"
17,Cc1ccccc1NC(=S)N(CCN1CCOCC1)Cc1ccccc1F,inactive
18,COc1ccc(NC2=NC(=S)N(c3ccccc3C)C23CCCCC3)cc1,inactive
19,CCCCn1c(SC(C)C(=O)c2ccc(OC)cc2)nc2cc(S(N)(=O)=O)ccc21 (stereo not given),"inconclusive: 29.1 µM [falling, single point]"
20,CCCN(CCC)C(=O)c1cn(C)c2ccc(S(=O)(=O)N3CCCC3)cc2c1=O,"inconclusive: 29.1 µM [falling, single point]"

row,SMILES,Potency
1,c1ccc(-c2nc(NCCCN3CCOCC3)c3ccccc3n2)cc1,inactive
2,COc1ccc(OC)c(NC(=O)CN(C)CCOc2ccc(Br)cc2)c1,"inconclusive: 32.6 µM [falling, partial curve, poor fit]"
3,COC(=O)c1cc(-c2cccs2)nc2ccccc12,"inconclusive: 0.13 µM [falling, full curve, poor fit]"
4,COc1ccc(C(=O)NC(C(=O)N2CCc3ccccc32)C(C)C)cc1 (stereo not given),inactive
5,Cc1ccc2oc(-c3cccc(NC(=O)c4cc(-n5cnnc5)ccc4Cl)c3)nc2c1,"inconclusive: 25.9 µM [falling, single point]"
6,Cc1cc(F)ccc1NS(=O)(=O)c1ccc(-n2cccn2)cc1,"inconclusive: 9.2 µM [falling, partial curve, poor fit]"
7,O=C(Nc1ccc(Br)c(C(F)(F)F)c1)c1ccccc1,"inconclusive: 29.1 µM [falling, single point]"
8,CCN(CC)C(=O)CSc1nnc(CNc2ccc(F)cc2)o1,"inconclusive: 20.6 µM [activator, single point]"
9,COc1ccccc1C1CC(c2cccc(NS(C)(=O)=O)c2)=NN1S(=O)(=O)c1ccccc1 (stereo not given),"inconclusive: 29.1 µM [falling, single point]"
10,Clc1ccc(/C=N/Nc2ncnc3ccccc23)cc1Cl,"inconclusive: 0.411 µM [activator, full curve]"
11,COc1ccc(C(NC(=O)C(C)C)c2ccc3cccnc3c2O)cc1 (stereo not given),"inconclusive: 20.6 µM [falling, partial curve, poor fit]"
12,Cc1ccc(Cl)cc1N1CCN(C(=O)C2(S(=O)(=O)c3ccc(Cl)cc3)CC2)CC1,"inconclusive: 23.1 µM [falling, single point]"
13,COc1ccc(OC)c(CNC(=O)Cc2ccc(NC(=O)N3CCSc4ncccc43)cc2)c1,"inconclusive: 18.4 µM [falling, partial curve, poor fit]"
14,O=C(Nc1cccc(Cl)c1)c1cc(-c2ccc3c(c2)OCCO3)on1,"inconclusive: 2.31 µM [activator, partial curve, poor fit]"
15,COc1ccc(Nc2cc(C(=O)N3CCc4ccccc4C3)c3ccccc3n2)c(OC)c1,"inconclusive: 16.4 µM [falling, single point]"
16,Cc1ccc(C)c(N2CCN(C(=O)CCC(=O)Nc3nnc(CC(C)C)s3)CC2)c1,"inconclusive: 29.1 µM [activator, partial curve, poor fit]"
17,Cc1cccc(N(C)C(CNS(=O)(=O)c2ccccc2)c2ccccc2)c1 (stereo not given),inactive
18,COc1ccc2[nH]c(C)c(CCNC(=S)Nc3cccc(C)c3)c2c1,"inconclusive: 13 µM [falling, partial curve, poor fit]"
19,O=[N+]([O-])c1cccc(N=NN(CCO)c2cccc([N+](=O)[O-])c2)c1,"inconclusive: 9.2 µM [falling, partial curve, poor fit]"
20,O=C(NCc1ccccc1)C1=C[C@H](c2ccc3c(c2)OCO3)C[C@H](OCc2ccc(CO)cc2)O1,"inconclusive: 32.6 µM [falling, single point]"

# As entered above:
# Under Potency, O=[N+]([O-])c1cccc(N=NN(CCO)c2cccc([N+](=O)[O-])c2)c1 has inconclusive: 9.2 µM [falling, partial curve, poor fit]
# Under Potency, COC(=O)c1cc(-c2cccs2)nc2ccccc12 has inconclusive: 0.13 µM [falling, full curve, poor fit]
